Experimental data: publication PMC10344862
No constants are given. Whether binding was seen depends on the method and setting. Binding seen in cells or lysates may run through a third protein. Some results given as binding are weak or reduced against the parent protein; the word gives no strength. For some of these results: Tags and fused reporters may be left off the sequences shown.

By UniProt entry, the sequences of proteins in these tests, tags left out. Residues count along the entry.
UniProt Q9Y6N7, residues 26-1651: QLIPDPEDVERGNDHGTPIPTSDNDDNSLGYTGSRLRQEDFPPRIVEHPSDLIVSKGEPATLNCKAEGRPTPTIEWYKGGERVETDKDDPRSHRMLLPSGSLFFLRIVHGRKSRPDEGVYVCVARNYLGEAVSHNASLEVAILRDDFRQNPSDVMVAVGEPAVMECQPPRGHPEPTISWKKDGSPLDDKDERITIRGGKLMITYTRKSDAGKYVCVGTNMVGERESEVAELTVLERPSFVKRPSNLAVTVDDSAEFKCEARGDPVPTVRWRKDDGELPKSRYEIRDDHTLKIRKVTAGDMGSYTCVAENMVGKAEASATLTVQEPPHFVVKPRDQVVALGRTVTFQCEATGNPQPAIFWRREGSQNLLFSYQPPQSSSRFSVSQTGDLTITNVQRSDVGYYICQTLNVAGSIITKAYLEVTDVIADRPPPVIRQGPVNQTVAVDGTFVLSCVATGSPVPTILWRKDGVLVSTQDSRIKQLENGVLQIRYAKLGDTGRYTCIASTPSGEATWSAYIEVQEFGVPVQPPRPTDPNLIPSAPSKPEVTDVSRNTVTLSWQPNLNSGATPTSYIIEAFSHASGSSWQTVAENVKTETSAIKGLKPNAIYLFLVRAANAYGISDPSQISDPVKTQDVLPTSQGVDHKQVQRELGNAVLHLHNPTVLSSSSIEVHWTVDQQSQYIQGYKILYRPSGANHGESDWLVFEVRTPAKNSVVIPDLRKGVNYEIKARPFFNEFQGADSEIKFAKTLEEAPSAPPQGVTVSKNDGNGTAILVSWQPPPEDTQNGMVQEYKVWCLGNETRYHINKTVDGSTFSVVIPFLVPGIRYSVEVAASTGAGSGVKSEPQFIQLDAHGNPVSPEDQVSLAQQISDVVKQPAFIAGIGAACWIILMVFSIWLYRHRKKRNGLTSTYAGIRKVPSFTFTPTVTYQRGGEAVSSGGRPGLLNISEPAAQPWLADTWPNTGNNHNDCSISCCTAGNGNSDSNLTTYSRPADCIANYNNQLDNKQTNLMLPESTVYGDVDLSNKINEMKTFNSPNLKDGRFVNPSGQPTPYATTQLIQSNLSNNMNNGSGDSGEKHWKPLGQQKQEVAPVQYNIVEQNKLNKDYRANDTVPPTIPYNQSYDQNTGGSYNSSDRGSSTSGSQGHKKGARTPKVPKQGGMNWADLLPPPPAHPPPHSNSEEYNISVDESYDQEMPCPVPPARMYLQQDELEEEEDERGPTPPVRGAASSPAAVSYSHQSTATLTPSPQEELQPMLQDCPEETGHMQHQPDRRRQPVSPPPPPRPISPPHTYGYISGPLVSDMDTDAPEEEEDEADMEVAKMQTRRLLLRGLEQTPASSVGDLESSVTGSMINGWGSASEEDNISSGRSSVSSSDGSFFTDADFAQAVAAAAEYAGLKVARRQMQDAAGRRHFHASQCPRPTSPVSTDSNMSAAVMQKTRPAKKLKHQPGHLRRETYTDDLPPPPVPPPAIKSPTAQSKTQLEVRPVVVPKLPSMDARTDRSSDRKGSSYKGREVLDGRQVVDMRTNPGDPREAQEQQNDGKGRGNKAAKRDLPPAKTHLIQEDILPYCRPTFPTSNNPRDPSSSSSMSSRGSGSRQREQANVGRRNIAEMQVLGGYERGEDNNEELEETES
UniProt Q13263: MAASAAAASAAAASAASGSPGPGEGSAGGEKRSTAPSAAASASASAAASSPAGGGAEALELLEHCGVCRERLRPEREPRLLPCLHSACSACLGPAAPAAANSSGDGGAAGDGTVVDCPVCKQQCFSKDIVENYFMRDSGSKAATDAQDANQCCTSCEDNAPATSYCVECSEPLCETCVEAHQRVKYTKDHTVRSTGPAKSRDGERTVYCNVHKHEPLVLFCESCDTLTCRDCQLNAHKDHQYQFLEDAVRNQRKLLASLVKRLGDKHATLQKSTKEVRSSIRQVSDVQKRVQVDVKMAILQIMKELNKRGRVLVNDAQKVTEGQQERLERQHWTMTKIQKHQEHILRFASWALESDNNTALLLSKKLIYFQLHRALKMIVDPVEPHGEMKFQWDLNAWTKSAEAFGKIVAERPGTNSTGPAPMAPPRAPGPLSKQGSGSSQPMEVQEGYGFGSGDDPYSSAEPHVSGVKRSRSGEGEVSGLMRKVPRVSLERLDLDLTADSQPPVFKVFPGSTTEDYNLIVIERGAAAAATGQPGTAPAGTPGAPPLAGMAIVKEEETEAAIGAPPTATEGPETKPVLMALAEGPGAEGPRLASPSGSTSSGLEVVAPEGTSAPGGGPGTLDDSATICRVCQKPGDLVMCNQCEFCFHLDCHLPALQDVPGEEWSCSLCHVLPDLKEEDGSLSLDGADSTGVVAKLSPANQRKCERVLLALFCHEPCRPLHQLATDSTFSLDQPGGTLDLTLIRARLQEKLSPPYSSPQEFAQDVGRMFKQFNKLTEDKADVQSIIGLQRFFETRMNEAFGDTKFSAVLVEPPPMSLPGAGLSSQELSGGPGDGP
UniProt Q14247: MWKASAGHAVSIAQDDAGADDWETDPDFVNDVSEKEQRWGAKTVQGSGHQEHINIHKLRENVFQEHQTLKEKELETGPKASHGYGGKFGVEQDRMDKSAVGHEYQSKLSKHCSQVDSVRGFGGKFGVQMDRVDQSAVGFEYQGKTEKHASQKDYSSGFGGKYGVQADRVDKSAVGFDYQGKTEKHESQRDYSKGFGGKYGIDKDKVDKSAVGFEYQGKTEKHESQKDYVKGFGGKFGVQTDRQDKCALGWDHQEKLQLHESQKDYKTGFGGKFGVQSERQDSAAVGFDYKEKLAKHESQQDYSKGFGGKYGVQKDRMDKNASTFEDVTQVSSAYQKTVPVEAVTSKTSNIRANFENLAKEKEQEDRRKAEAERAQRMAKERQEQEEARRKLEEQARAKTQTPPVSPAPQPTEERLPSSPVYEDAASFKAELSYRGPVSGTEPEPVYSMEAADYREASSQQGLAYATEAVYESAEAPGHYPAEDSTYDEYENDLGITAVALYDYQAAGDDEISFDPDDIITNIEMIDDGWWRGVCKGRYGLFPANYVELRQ

What was measured:
[1] = target: T1, NEK9 (source not told: hit of the mass spectrometry analysis; partner in the co-IPs of Fig. 3G, H) (UniProt Q8TD19); assay: co-IP; NEK9 with TRIM28 or CTTN in AGS and MKN45 cells
T1 sequence: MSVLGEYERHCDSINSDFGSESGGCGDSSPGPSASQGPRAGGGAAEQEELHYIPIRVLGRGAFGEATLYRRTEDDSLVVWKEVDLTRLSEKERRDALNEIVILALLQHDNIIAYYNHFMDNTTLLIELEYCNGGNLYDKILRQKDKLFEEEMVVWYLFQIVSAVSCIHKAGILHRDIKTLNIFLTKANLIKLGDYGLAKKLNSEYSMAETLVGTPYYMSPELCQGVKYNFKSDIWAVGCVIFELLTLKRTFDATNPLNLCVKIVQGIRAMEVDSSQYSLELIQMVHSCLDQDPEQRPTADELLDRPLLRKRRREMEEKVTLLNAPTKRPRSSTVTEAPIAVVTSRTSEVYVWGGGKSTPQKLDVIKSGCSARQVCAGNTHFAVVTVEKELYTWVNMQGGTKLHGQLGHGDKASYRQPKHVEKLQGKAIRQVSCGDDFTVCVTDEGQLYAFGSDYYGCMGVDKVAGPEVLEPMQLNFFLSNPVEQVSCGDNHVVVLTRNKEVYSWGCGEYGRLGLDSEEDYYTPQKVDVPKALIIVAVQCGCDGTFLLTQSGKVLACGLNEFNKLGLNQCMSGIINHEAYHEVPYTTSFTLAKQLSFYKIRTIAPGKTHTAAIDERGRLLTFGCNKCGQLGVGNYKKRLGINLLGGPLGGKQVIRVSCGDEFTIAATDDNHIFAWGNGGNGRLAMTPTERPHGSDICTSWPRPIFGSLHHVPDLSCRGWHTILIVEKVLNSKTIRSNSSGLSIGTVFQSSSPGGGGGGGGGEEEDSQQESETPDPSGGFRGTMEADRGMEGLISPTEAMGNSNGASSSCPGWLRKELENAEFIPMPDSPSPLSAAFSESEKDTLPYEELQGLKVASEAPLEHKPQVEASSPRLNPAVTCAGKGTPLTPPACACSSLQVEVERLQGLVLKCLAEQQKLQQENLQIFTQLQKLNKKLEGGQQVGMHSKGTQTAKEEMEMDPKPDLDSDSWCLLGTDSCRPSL

[2] = target: roundabout guidance receptor 1 (ROBO1), endogenous (human (endogenous in GC cells AGS, MKN45)) (UniProt Q9Y6N7); assay: co-IP; endogenous ROBO1 and NEK9 in GC cells; without or with pre-treatment with SLIT2 (100 ng/ml, 24 hours)
[3] = target: HA-ROBO1 (the full-length) (UniProt Q9Y6N7); assay: co-IP; GC cell lysates co-transfected with Flag-NEK9 and HA-ROBO1 (the full-length or deletion mutants)

Row | Molecule | binding [1] | other results
1 | tripartite motif containing 28 (TRIM28) (from UniProt Q13263 1-835) | binds | 
2 | cortactin (CTTN) (from UniProt Q14247 1-550) | binds | 
3 | NEK9, endogenous (enzyme, UniProt Q8TD19 1-979) MSVLGEYERHCDSINSDFGSESGGCGDSSPGPSASQGPRAGGGAAEQEELHYIPIRVLGRGAFGEATLYRRTEDDSLVVWKEVDLTRLSEKERRDALNEIVILALLQHDNIIAYYNHFMDNTTLLIELEYCNGGNLYDKILRQKDKLFEEEMVVWYLFQIVSAVSCIHKAGILHRDIKTLNIFLTKANLIKLGDYGLAKKLNSEYSMAETLVGTPYYMSPELCQGVKYNFKSDIWAVGCVIFELLTLKRTFDATNPLNLCVKIVQGIRAMEVDSSQYSLELIQMVHSCLDQDPEQRPTADELLDRPLLRKRRREMEEKVTLLNAPTKRPRSSTVTEAPIAVVTSRTSEVYVWGGGKSTPQKLDVIKSGCSARQVCAGNTHFAVVTVEKELYTWVNMQGGTKLHGQLGHGDKASYRQPKHVEKLQGKAIRQVSCGDDFTVCVTDEGQLYAFGSDYYGCMGVDKVAGPEVLEPMQLNFFLSNPVEQVSCGDNHVVVLTRNKEVYSWGCGEYGRLGLDSEEDYYTPQKVDVPKALIIVAVQCGCDGTFLLTQSGKVLACGLNEFNKLGLNQCMSGIINHEAYHEVPYTTSFTLAKQLSFYKIRTIAPGKTHTAAIDERGRLLTFGCNKCGQLGVGNYKKRLGINLLGGPLGGKQVIRVSCGDEFTIAATDDNHIFAWGNGGNGRLAMTPTERPHGSDICTSWPRPIFGSLHHVPDLSCRGWHTILIVEKVLNSKTIRSNSSGLSIGTVFQSSSPGGGGGGGGGEEEDSQQESETPDPSGGFRGTMEADRGMEGLISPTEAMGNSNGASSSCPGWLRKELENAEFIPMPDSPSPLSAAFSESEKDTLPYEELQGLKVASEAPLEHKPQVEASSPRLNPAVTCAGKGTPLTPPACACSSLQVEVERLQGLVLKCLAEQQKLQQENLQIFTQLQKLNKKLEGGQQVGMHSKGTQTAKEEMEMDPKPDLDSDSWCLLGTDSCRPSL |  | binding [2]: binds
4 | Flag-NEK9 (enzyme, UniProt Q8TD19 1-979) MSVLGEYERHCDSINSDFGSESGGCGDSSPGPSASQGPRAGGGAAEQEELHYIPIRVLGRGAFGEATLYRRTEDDSLVVWKEVDLTRLSEKERRDALNEIVILALLQHDNIIAYYNHFMDNTTLLIELEYCNGGNLYDKILRQKDKLFEEEMVVWYLFQIVSAVSCIHKAGILHRDIKTLNIFLTKANLIKLGDYGLAKKLNSEYSMAETLVGTPYYMSPELCQGVKYNFKSDIWAVGCVIFELLTLKRTFDATNPLNLCVKIVQGIRAMEVDSSQYSLELIQMVHSCLDQDPEQRPTADELLDRPLLRKRRREMEEKVTLLNAPTKRPRSSTVTEAPIAVVTSRTSEVYVWGGGKSTPQKLDVIKSGCSARQVCAGNTHFAVVTVEKELYTWVNMQGGTKLHGQLGHGDKASYRQPKHVEKLQGKAIRQVSCGDDFTVCVTDEGQLYAFGSDYYGCMGVDKVAGPEVLEPMQLNFFLSNPVEQVSCGDNHVVVLTRNKEVYSWGCGEYGRLGLDSEEDYYTPQKVDVPKALIIVAVQCGCDGTFLLTQSGKVLACGLNEFNKLGLNQCMSGIINHEAYHEVPYTTSFTLAKQLSFYKIRTIAPGKTHTAAIDERGRLLTFGCNKCGQLGVGNYKKRLGINLLGGPLGGKQVIRVSCGDEFTIAATDDNHIFAWGNGGNGRLAMTPTERPHGSDICTSWPRPIFGSLHHVPDLSCRGWHTILIVEKVLNSKTIRSNSSGLSIGTVFQSSSPGGGGGGGGGEEEDSQQESETPDPSGGFRGTMEADRGMEGLISPTEAMGNSNGASSSCPGWLRKELENAEFIPMPDSPSPLSAAFSESEKDTLPYEELQGLKVASEAPLEHKPQVEASSPRLNPAVTCAGKGTPLTPPACACSSLQVEVERLQGLVLKCLAEQQKLQQENLQIFTQLQKLNKKLEGGQQVGMHSKGTQTAKEEMEMDPKPDLDSDSWCLLGTDSCRPSL |  | binding [3]: binds
